Over roughly 2,300 compounds, “plate-normalized OD600 growth (mean of duplicates)” has its median near 0.29; the lowest 2% begin near 0.22. Some of the results follow.
System: Escherichia coli BW25113
Test: plate-normalized OD600 growth (mean of duplicates) (OD600 (normalized)); higher = more growth (less inhibition)
Conditions: 10 µM
Procedure: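 E. coli BW25113 in LB (100 µl, 96-well, no shaking) was exposed to 10 µM of each compound from a ~30,000-member library and grown at 37°C for 24 h or 15°C for 48 h, in duplicate. Growth was read as OD600 and the duplicate ODs were normalized across screening plates to correct plate-to-plate variation. Hits were >3σ below the mean OD600 at 15°C and <2σ below the mean at 37°C.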

With `Cc1cc(C2=CSC3=NCCN23)ccc1Cl` the “plate-normalized OD600 growth” value (temperature: 15°C, 48 h) was 0.238 and the “plate-normalized OD600 growth” value (temperature: 37°C, 24 h) was 0.623.

`O=C1c2ccccc2C(=O)N1/N=C/c1ccc(Oc2ccc([N+](=O)[O-])cn2)cc1` was tested, and the “plate-normalized OD600 growth” value (temperature: 15°C, 48 h) was 0.266 and the “plate-normalized OD600 growth” value (temperature: 37°C, 24 h) was 0.636.

`O=c1[nH]c2cccnc2[nH]c1=O` was tested, and the “plate-normalized OD600 growth” value (temperature: 15°C, 48 h) was 0.233 and the “plate-normalized OD600 growth” value (temperature: 37°C, 24 h) was 0.617.

`Cc1ccc(NC(=O)c2c(F)cccc2Cl)c(C(=O)Nc2ccc(F)cc2)c1` was tested, and the “plate-normalized OD600 growth” value (temperature: 15°C, 48 h) was 0.265 and the “plate-normalized OD600 growth” value (temperature: 37°C, 24 h) was 0.617.

With `CC1Cn2c(nnc2-c2cccc(O)c2)S1` (configuration not stated) the “plate-normalized OD600 growth” value (temperature: 15°C, 48 h) was 0.247 and the “plate-normalized OD600 growth” value (temperature: 37°C, 24 h) was 0.622.

In the case of `COc1cccc(-c2cc(C(F)(F)F)nc(SC3CC(=O)C4OCC3O4)n2)c1` (configuration not stated), the “plate-normalized OD600 growth” value (temperature: 15°C, 48 h) is reported as 0.238 and the “plate-normalized OD600 growth” value (temperature: 37°C, 24 h) is reported as 0.614.

`CC12c3ccccc3C(c3ccccc31)C1C(=O)N(Cc3cccnc3)C(=O)C12` (configuration not stated) was tested, and the “plate-normalized OD600 growth” value (temperature: 15°C, 48 h) was 0.241 and the “plate-normalized OD600 growth” value (temperature: 37°C, 24 h) was 0.618.

With `CCOC(=O)N/N=C\c1cccs1` the “plate-normalized OD600 growth” value (temperature: 15°C, 48 h) was 0.263 and the “plate-normalized OD600 growth” value (temperature: 37°C, 24 h) was 0.63.

`Cc1ccccc1OCC(=O)Nc1cccc(N2C(=O)c3ccccc3C2=O)c1` was tested, and the “plate-normalized OD600 growth” value (temperature: 15°C, 48 h) was 0.235 and the “plate-normalized OD600 growth” value (temperature: 37°C, 24 h) was 0.661.

`N#CC1=C(c2ccc(Cl)cc2)Sc2nnc(C(F)(F)F)n2N=C1N` was tested, and the “plate-normalized OD600 growth” value (temperature: 15°C, 48 h) was 0.255 and the “plate-normalized OD600 growth” value (temperature: 37°C, 24 h) was 0.611.

`CCOC(=O)c1cnc(SCC(=O)c2ccc(Cl)cc2Cl)[nH]1` was tested, and the “plate-normalized OD600 growth” value (temperature: 15°C, 48 h) was 0.244 and the “plate-normalized OD600 growth” value (temperature: 37°C, 24 h) was 0.618.

`NC(=O)CCCCCCCCCC(Cc1ccccc1)C(=O)O` (configuration not stated) was tested, and the “plate-normalized OD600 growth” value (temperature: 15°C, 48 h) was 0.246 and the “plate-normalized OD600 growth” value (temperature: 37°C, 24 h) was 0.623.

For `Clc1ccc(OCc2cn3ccccc3n2)c2ncccc12`, the “plate-normalized OD600 growth” value (temperature: 15°C, 48 h) was 0.251 and the “plate-normalized OD600 growth” value (temperature: 37°C, 24 h) was 0.612.

`COc1ccc(C(=O)NC(N2CCCCC2c2cccnc2)(C(F)(F)F)C(F)(F)F)cc1` (configuration not stated) was tested, and the “plate-normalized OD600 growth” value (temperature: 15°C, 48 h) was 0.256 and the “plate-normalized OD600 growth” value (temperature: 37°C, 24 h) was 0.616.

`O=C(OCCN1CCOCC1)c1ccccc1Br` was tested, and the “plate-normalized OD600 growth” value (temperature: 15°C, 48 h) was 0.244 and the “plate-normalized OD600 growth” value (temperature: 37°C, 24 h) was 0.629.

With `CC(=O)NC(=O)/C(C#N)=C/N1CCN(Cc2ccccc2)CC1` the “plate-normalized OD600 growth” value (temperature: 15°C, 48 h) was 0.253 and the “plate-normalized OD600 growth” value (temperature: 37°C, 24 h) was 0.611.

With `CC(C)(CNc1ccc([N+](=O)[O-])cc1Cl)CNS(C)(=O)=O` the “plate-normalized OD600 growth” value (temperature: 15°C, 48 h) was 0.245 and the “plate-normalized OD600 growth” value (temperature: 37°C, 24 h) was 0.605.

For `Cc1cc(S(=O)(=O)n2nnc3ccccc32)c(C)cc1Br`, the “plate-normalized OD600 growth” value (temperature: 15°C, 48 h) was 0.244 and the “plate-normalized OD600 growth” value (temperature: 37°C, 24 h) was 0.63.

In the case of `Cc1nnc(N/N=C(\CCC(=O)O)C(=O)O)[nH]c1=O`, the “plate-normalized OD600 growth” value (temperature: 15°C, 48 h) is reported as 0.242 and the “plate-normalized OD600 growth” value (temperature: 37°C, 24 h) is reported as 0.603.

`COC(=O)c1ccccc1CSc1nccc(C(F)(F)F)n1` was tested, and the “plate-normalized OD600 growth” value (temperature: 15°C, 48 h) was 0.248 and the “plate-normalized OD600 growth” value (temperature: 37°C, 24 h) was 0.615.

In the case of `COc1ccc(C2(CNS(=O)(=O)c3ccc(C)cc3)CCOCC2)cc1`, the “plate-normalized OD600 growth” value (temperature: 15°C, 48 h) is reported as 0.251 and the “plate-normalized OD600 growth” value (temperature: 37°C, 24 h) is reported as 0.645.

For `O=S(=O)(c1cccc2nsnc12)N1CCC(Cc2ccccc2)CC1`, the “plate-normalized OD600 growth” value (temperature: 15°C, 48 h) was 0.236 and the “plate-normalized OD600 growth” value (temperature: 37°C, 24 h) was 0.614.

`Oc1c(F)cccc1C=Nc1ccc(N2CCOCC2)cc1` was tested, and the “plate-normalized OD600 growth” value (temperature: 15°C, 48 h) was 0.234 and the “plate-normalized OD600 growth” value (temperature: 37°C, 24 h) was 0.619.

In the case of `CCCCOc1cc(C(=O)O)ccc1OC`, the “plate-normalized OD600 growth” value (temperature: 15°C, 48 h) is reported as 0.261 and the “plate-normalized OD600 growth” value (temperature: 37°C, 24 h) is reported as 0.64.

With `Cc1cc(C(F)(F)F)nn1CC(=O)Nc1ccc(CC#N)cc1` the “plate-normalized OD600 growth” value (temperature: 15°C, 48 h) was 0.252 and the “plate-normalized OD600 growth” value (temperature: 37°C, 24 h) was 0.612.

With `O=C(CSc1ccccn1)Nc1ncc(Br)cc1Br` the “plate-normalized OD600 growth” value (temperature: 15°C, 48 h) was 0.239 and the “plate-normalized OD600 growth” value (temperature: 37°C, 24 h) was 0.635.

With `O=c1nc(-c2ccccc2)nc(-c2ccccc2)[nH]1` the “plate-normalized OD600 growth” value (temperature: 15°C, 48 h) was 0.26 and the “plate-normalized OD600 growth” value (temperature: 37°C, 24 h) was 0.617.

`CCCCOc1ccc(N2C(=O)CC(N3CCN(c4cccc(C(F)(F)F)c4)CC3)C2=O)cc1` (configuration not stated) was tested, and the “plate-normalized OD600 growth” value (temperature: 15°C, 48 h) was 0.253 and the “plate-normalized OD600 growth” value (temperature: 37°C, 24 h) was 0.61.

`CC(=O)c1csc([N+](=O)[O-])c1` was tested, and the “plate-normalized OD600 growth” value (temperature: 15°C, 48 h) was 0.22 and the “plate-normalized OD600 growth” value (temperature: 37°C, 24 h) was 0.616.

For `O=[N+]([O-])c1cc(Oc2cccc(Cl)c2)c2c(c1)Oc1ccccc1C=C2`, the “plate-normalized OD600 growth” value (temperature: 15°C, 48 h) was 0.235 and the “plate-normalized OD600 growth” value (temperature: 37°C, 24 h) was 0.565.

`CCOC(=O)c1cc(CN2CCOCC2)c(C)o1` was tested, and the “plate-normalized OD600 growth” value (temperature: 15°C, 48 h) was 0.237 and the “plate-normalized OD600 growth” value (temperature: 37°C, 24 h) was 0.614.
